Measurements published in article PMC9713718.
These are yes or no findings as the source states them, for the method shown. For some of these results: Binding seen in cells or lysates may run through a third protein. Some binding calls cover weakened binding; strength is not graded here. For some of these results: Tags and fused reporters may be left off the sequences shown. Values belong to the molecule of their own block, whether it stands above or below them.

Chains of the proteins cited; added tags and fusions are not shown. Lines headed by an entry give the natural chain unless they say otherwise; changes in a name come on top.
UniProt P58801: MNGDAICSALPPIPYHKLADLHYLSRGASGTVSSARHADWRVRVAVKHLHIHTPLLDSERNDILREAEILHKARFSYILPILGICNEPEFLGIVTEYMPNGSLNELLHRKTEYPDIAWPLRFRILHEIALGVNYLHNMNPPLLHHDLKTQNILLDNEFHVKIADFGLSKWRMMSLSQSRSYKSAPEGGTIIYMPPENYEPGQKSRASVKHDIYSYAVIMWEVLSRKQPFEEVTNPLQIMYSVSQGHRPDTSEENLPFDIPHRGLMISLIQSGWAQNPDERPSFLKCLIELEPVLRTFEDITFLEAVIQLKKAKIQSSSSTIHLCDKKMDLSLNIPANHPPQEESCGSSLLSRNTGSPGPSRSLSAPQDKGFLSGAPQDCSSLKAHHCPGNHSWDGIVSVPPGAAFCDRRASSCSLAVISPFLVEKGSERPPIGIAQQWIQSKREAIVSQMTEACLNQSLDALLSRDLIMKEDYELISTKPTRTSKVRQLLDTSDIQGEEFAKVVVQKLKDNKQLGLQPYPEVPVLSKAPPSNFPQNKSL
UniProt Q96CV9: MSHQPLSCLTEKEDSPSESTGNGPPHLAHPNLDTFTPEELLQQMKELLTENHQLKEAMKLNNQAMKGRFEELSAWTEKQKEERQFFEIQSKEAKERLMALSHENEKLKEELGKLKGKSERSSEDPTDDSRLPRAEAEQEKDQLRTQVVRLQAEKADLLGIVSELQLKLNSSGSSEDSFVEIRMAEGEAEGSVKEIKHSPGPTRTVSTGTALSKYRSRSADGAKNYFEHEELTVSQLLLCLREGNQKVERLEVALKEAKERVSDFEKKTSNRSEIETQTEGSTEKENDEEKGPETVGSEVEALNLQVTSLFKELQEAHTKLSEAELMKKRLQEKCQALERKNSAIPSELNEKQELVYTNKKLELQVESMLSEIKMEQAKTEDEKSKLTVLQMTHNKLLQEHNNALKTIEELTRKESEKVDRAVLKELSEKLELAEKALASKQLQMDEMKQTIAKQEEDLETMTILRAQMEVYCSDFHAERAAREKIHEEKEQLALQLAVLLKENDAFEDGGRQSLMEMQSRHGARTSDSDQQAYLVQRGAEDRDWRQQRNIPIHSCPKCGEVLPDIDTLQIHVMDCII
UniProt Q9HC29: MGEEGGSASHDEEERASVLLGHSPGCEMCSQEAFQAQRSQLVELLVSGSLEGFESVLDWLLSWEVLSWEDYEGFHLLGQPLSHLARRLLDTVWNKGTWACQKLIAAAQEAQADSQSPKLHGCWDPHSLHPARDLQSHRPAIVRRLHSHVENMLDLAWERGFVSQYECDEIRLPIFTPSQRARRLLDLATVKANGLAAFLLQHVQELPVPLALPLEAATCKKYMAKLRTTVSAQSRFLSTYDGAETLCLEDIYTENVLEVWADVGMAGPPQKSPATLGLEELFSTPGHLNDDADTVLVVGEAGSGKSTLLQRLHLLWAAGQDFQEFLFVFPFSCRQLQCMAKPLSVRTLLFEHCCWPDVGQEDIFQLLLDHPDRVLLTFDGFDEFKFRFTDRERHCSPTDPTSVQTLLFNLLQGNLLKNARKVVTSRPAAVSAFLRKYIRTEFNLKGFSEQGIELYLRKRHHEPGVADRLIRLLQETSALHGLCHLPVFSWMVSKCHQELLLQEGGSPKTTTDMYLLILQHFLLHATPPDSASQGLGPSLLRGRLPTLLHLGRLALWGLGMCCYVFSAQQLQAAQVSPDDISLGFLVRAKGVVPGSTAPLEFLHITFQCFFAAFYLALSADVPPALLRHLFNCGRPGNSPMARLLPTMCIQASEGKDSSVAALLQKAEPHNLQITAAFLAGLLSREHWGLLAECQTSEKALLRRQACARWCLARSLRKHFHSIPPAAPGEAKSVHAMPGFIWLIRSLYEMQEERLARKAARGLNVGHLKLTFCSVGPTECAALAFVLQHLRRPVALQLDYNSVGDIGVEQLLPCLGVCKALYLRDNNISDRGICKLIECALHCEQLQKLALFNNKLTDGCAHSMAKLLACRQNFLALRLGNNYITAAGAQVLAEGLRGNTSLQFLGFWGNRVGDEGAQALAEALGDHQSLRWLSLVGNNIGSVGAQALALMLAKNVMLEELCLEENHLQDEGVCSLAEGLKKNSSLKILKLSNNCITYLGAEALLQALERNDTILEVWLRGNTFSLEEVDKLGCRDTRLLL
UniProt Q676U5: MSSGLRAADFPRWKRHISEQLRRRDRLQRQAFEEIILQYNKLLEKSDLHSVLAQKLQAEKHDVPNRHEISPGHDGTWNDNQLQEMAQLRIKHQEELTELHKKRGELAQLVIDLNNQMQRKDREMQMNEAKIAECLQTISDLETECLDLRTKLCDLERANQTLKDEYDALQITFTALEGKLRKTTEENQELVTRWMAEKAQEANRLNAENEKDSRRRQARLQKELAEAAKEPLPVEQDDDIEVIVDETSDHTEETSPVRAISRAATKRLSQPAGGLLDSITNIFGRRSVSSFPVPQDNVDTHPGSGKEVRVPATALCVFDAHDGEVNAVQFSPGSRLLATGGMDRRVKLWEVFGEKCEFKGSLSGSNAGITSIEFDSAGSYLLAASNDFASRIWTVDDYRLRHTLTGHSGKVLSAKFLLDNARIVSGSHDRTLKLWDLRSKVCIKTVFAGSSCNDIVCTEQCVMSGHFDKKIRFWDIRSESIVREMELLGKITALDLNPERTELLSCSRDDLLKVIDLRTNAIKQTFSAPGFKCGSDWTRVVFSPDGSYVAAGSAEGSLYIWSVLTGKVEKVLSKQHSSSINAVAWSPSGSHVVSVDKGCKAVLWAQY

Legend:
GFP-RIPK2 = GFP-RIPK2 (UniProt O43353); assay: co-IP; HEK293T cells transiently transfected with tagged proteins; NP-40 lysis buffer, antibody 2 h at 4°C, protein G Dynabeads, washed with ice-cold PBS; Western blot; for p62 with NOD1, NOD2 or RIPK2 also with and without co-expressed IRGM
[1] = target: T1, Flag-IRGM, stably expressed in HT-29 cells (UniProt A1A4Y4)
T1 sequence: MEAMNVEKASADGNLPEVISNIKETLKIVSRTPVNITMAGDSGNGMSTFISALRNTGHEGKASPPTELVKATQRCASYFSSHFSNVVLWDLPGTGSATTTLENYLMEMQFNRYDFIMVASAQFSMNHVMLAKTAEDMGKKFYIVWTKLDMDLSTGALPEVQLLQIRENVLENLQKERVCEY

[2] = target: T2, IRGM, endogenous in THP-1 cells (human (endogenous in THP-1)) (UniProt A1A4Y4); assay: co-IP; endogenous proteins, THP-1 cell lysates, untreated or treated with iE-DAP (40 μg/ml, 6 h) or MDP (40 μg/ml, 6 h); IP with IRGM antibody or isotype control IgG
T2 sequence: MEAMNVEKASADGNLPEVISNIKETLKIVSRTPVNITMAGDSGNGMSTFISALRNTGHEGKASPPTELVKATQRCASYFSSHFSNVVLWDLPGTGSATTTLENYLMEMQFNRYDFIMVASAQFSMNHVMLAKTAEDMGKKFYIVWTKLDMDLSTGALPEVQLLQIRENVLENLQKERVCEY

[3] = target: T3, IRGM, overexpressed in HEK293T cells (tag not stated for the experiment) (UniProt A1A4Y4); assay: co-IP; HEK293T cells transiently transfected with tagged proteins; NP-40 lysis buffer, antibody 2 h at 4°C, protein G Dynabeads, washed with ice-cold PBS; Western blot; for p62 with NOD1, NOD2 or RIPK2 also with and without co-expressed IRGM
T3 sequence: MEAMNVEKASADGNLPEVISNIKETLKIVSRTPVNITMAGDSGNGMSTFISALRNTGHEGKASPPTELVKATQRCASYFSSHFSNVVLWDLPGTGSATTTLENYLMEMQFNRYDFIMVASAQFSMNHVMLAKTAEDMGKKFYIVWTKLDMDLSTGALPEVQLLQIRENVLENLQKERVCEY

[4] = target: RIPK2, endogenous in mouse BMDMs and mouse colon (mouse (endogenous in BMDMs and colon)) (UniProt P58801); assay: soluble-insoluble fractionation with Western blot; endogenous proteins; cells or tissue lysed in 1% Triton X-100 buffer (150 mM NaCl, 50 mM Tris pH 7.5), 17,000 g, pellet resuspended in 1% SDS; oligomers seen in the insoluble fraction; cells infected with S. flexneri (also other bacteria, iE-DAP or MDP; RIPK2 knock-down or knock-out, Irgm1 knock-out, GSK583 as treatments)
GST-RIPK2 = GST-RIPK2 (UniProt O43353); assay: pull-down; GST fusion purified on Glutathione Sepharose beads incubated with [35S]-labelled in vitro translated Myc-tagged protein in NETN-E buffer (50 mM Tris pH 8.0, 100 mM NaCl, 6 mM EDTA, 0.5% NP-40, 1 mM DTT), 2 h at 4°C; autoradiography; only the target purified

binding (GFP-RIPK2): no binding
Molecule: Flag-OPTINEURIN (from UniProt Q96CV9 1-577)

binding [1]: binds
Molecule: NOD2, endogenous in HT-29 cells (from UniProt Q9HC29 1-1040)

binding [2]: binds
Molecule: NOD2, endogenous in THP-1 cells (from UniProt Q9HC29 1-1040)

binding [3]: binds
Molecule: NOD2, overexpressed in HEK293T cells (Appendix Fig S3B) (from UniProt Q9HC29 1-1040)

binding [4]: binds
Molecule: RIPK2, endogenous in mouse BMDMs and mouse colon (from UniProt P58801 1-539)

binding (GST-RIPK2): binds
Molecule: myc-BECLIN1, in vitro translated (from UniProt Q14457 1-450)

binding [3]: binds
B4: GFP-NOD1 (protein, UniProt Q9Y239 1-953)
chain: MEEQGHSEMEIIPSESHPHIQLLKSNRELLVTHIRNTQCLVDNLLKNDYFSAEDAEIVCACPTQPDKVRKILDLVQSKGEEVSEFFLYLLQQLADAYVDLRPWLLEIGFSPSLLTQSKVVVNTDPVSRYTQQLRHHLGRDSKFVLCYAQKEELLLEEIYMDTIMELVGFSNESLGSLNSLACLLDHTTGILNEQGETIFILGDAGVGKSMLLQRLQSLWATGRLDAGVKFFFHFRCRMFSCFKESDRLCLQDLLFKHYCYPERDPEEVFAFLLRFPHVALFTFDGLDELHSDLDLSRVPDSSCPWEPAHPLVLLANLLSGKLLKGASKLLTARTGIEVPRQFLRKKVLLRGFSPSHLRAYARRMFPERALQDRLLSQLEANPNLCSLCSVPLFCWIIFRCFQHFRAAFEGSPQLPDCTMTLTDVFLLVTEVHLNRMQPSSLVQRNTRSPVETLHAGRDTLCSLGQVAHRGMEKSLFVFTQEEVQASGLQERDMQLGFLRALPELGPGGDQQSYEFFHLTLQAFFTAFFLVLDDRVGTQELLRFFQEWMPPAGAATTSCYPPFLPFQCLQGSGPAREDLFKNKDHFQFTNLFLCGLLSKAKQKLLRHLVPAAALRRKRKALWAHLFSSLRGYLKSLPRVQVESFNQVQAMPTFIWMLRCIYETQSQKVGQLAARGICANYLKLTYCNACSADCSALSFVLHHFPKRLALDLDNNNLNDYGVRELQPCFSRLTVLRLSVNQITDGGVKVLSEELTKYKIVTYLGLYNNQITDVGARYVTKILDECKGLTHLKLGKNKITSEGGKYLALAVKNSKSISEVGMWGNQVGDEGAKAFAEALRNHPSLTTLSLASNGISTEGGKSLARALQQNTSLEILWLTQNELNDEVAESLAEMLKVNQTLKHLWLIQNQITAKGTAQLADALQSNTGITEICLNGNLIKPEEAKVYEDEKRIICF

binding [3]: binds
B5: GFP-NOD1^CARD (domain or fragment, UniProt Q9Y239 15-105)
chain: ESHPHIQLLKSNRELLVTHIRNTQCLVDNLLKNDYFSAEDAEIVCACPTQPDKVRKILDLVQSKGEEVSEFFLYLLQQLADAYVDLRPWLL

The next lines start with the molecule.

Molecule: myc-ATG16L1, in vitro translated (from UniProt Q676U5 1-607)
binding (GST-RIPK2): binds

B1: Flag-NDP52 (protein, UniProt Q13137 1-446)
chain: MEETIKDPPTSAVLLDHCHFSQVIFNSVEKFYIPGGDVTCHYTFTQHFIPRRKDWIGIFRVGWKTTREYYTFMWVTLPIDLNNKSAKQQEVQFKAYYLPKDDEYYQFCYVDEDGVVRGASIPFQFRPENEEDILVVTTQGEVEEIEQHNKELCKENQELKDSCISLQKQNSDMQAELQKKQEELETLQSINKKLELKVKEQKDYWETELLQLKEQNQKMSSENEKMGIRVDQLQAQLSTQEKEMEKLVQGDQDKTEQLEQLKKENDHLFLSLTEQRKDQKKLEQTVEQMKQNETTAMKKQQELMDENFDLSKRLSENEIICNALQRQKERLEGENDLLKRENSRLLSYMGLDFNSLPYQVPTSDEGGARQNPGLAYGNPYSGIQESSSPSPLSIKKCPICKADDICDHTLEQQQMQPLCFNCPICDKIFPATEKQIFEDHVFCHSL
binding (GFP-RIPK2): no binding

B2: NOD1, endogenous in THP-1 cells (protein, UniProt Q9Y239 1-953)
chain: MEEQGHSEMEIIPSESHPHIQLLKSNRELLVTHIRNTQCLVDNLLKNDYFSAEDAEIVCACPTQPDKVRKILDLVQSKGEEVSEFFLYLLQQLADAYVDLRPWLLEIGFSPSLLTQSKVVVNTDPVSRYTQQLRHHLGRDSKFVLCYAQKEELLLEEIYMDTIMELVGFSNESLGSLNSLACLLDHTTGILNEQGETIFILGDAGVGKSMLLQRLQSLWATGRLDAGVKFFFHFRCRMFSCFKESDRLCLQDLLFKHYCYPERDPEEVFAFLLRFPHVALFTFDGLDELHSDLDLSRVPDSSCPWEPAHPLVLLANLLSGKLLKGASKLLTARTGIEVPRQFLRKKVLLRGFSPSHLRAYARRMFPERALQDRLLSQLEANPNLCSLCSVPLFCWIIFRCFQHFRAAFEGSPQLPDCTMTLTDVFLLVTEVHLNRMQPSSLVQRNTRSPVETLHAGRDTLCSLGQVAHRGMEKSLFVFTQEEVQASGLQERDMQLGFLRALPELGPGGDQQSYEFFHLTLQAFFTAFFLVLDDRVGTQELLRFFQEWMPPAGAATTSCYPPFLPFQCLQGSGPAREDLFKNKDHFQFTNLFLCGLLSKAKQKLLRHLVPAAALRRKRKALWAHLFSSLRGYLKSLPRVQVESFNQVQAMPTFIWMLRCIYETQSQKVGQLAARGICANYLKLTYCNACSADCSALSFVLHHFPKRLALDLDNNNLNDYGVRELQPCFSRLTVLRLSVNQITDGGVKVLSEELTKYKIVTYLGLYNNQITDVGARYVTKILDECKGLTHLKLGKNKITSEGGKYLALAVKNSKSISEVGMWGNQVGDEGAKAFAEALRNHPSLTTLSLASNGISTEGGKSLARALQQNTSLEILWLTQNELNDEVAESLAEMLKVNQTLKHLWLIQNQITAKGTAQLADALQSNTGITEICLNGNLIKPEEAKVYEDEKRIICF
binding [2]: binds

B3: NOD1, endogenous in HT-29 cells (protein, UniProt Q9Y239 1-953)
chain: MEEQGHSEMEIIPSESHPHIQLLKSNRELLVTHIRNTQCLVDNLLKNDYFSAEDAEIVCACPTQPDKVRKILDLVQSKGEEVSEFFLYLLQQLADAYVDLRPWLLEIGFSPSLLTQSKVVVNTDPVSRYTQQLRHHLGRDSKFVLCYAQKEELLLEEIYMDTIMELVGFSNESLGSLNSLACLLDHTTGILNEQGETIFILGDAGVGKSMLLQRLQSLWATGRLDAGVKFFFHFRCRMFSCFKESDRLCLQDLLFKHYCYPERDPEEVFAFLLRFPHVALFTFDGLDELHSDLDLSRVPDSSCPWEPAHPLVLLANLLSGKLLKGASKLLTARTGIEVPRQFLRKKVLLRGFSPSHLRAYARRMFPERALQDRLLSQLEANPNLCSLCSVPLFCWIIFRCFQHFRAAFEGSPQLPDCTMTLTDVFLLVTEVHLNRMQPSSLVQRNTRSPVETLHAGRDTLCSLGQVAHRGMEKSLFVFTQEEVQASGLQERDMQLGFLRALPELGPGGDQQSYEFFHLTLQAFFTAFFLVLDDRVGTQELLRFFQEWMPPAGAATTSCYPPFLPFQCLQGSGPAREDLFKNKDHFQFTNLFLCGLLSKAKQKLLRHLVPAAALRRKRKALWAHLFSSLRGYLKSLPRVQVESFNQVQAMPTFIWMLRCIYETQSQKVGQLAARGICANYLKLTYCNACSADCSALSFVLHHFPKRLALDLDNNNLNDYGVRELQPCFSRLTVLRLSVNQITDGGVKVLSEELTKYKIVTYLGLYNNQITDVGARYVTKILDECKGLTHLKLGKNKITSEGGKYLALAVKNSKSISEVGMWGNQVGDEGAKAFAEALRNHPSLTTLSLASNGISTEGGKSLARALQQNTSLEILWLTQNELNDEVAESLAEMLKVNQTLKHLWLIQNQITAKGTAQLADALQSNTGITEICLNGNLIKPEEAKVYEDEKRIICF
binding [1]: binds

B6: GFP-tagged NACHT domain of NOD1 (domain or fragment, UniProt Q9Y239 196-531)
chain: ETIFILGDAGVGKSMLLQRLQSLWATGRLDAGVKFFFHFRCRMFSCFKESDRLCLQDLLFKHYCYPERDPEEVFAFLLRFPHVALFTFDGLDELHSDLDLSRVPDSSCPWEPAHPLVLLANLLSGKLLKGASKLLTARTGIEVPRQFLRKKVLLRGFSPSHLRAYARRMFPERALQDRLLSQLEANPNLCSLCSVPLFCWIIFRCFQHFRAAFEGSPQLPDCTMTLTDVFLLVTEVHLNRMQPSSLVQRNTRSPVETLHAGRDTLCSLGQVAHRGMEKSLFVFTQEEVQASGLQERDMQLGFLRALPELGPGGDQQSYEFFHLTLQAFFTAFFLVL
binding [3]: binds
